This is one part of the list. Many values rest on one well or one pass, so single values are uncertain.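 The apoptosis fraction was the count of cleaved-PARP antibody-stained nuclei relative to all DNA-stained nuclei, imaged in 1,536-well plates. Screening doses were set so most cells survived, and baseline and induced cleaved-PARP levels vary greatly across cell lines.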
Columns and labels:
Test in all cases: cleaved PARP positive nuclei fraction relative to DMSO control; melanoma cells; higher = more apoptosis
Settings in all cases: library dose: low library concentration; 72 h
CBRC034 = test system: CBRC034 (line from a melanoma biopsy)
COLO792 = test system: COLO792
COLO800 = test system: COLO800
COLO829 = test system: COLO829
G361 = test system: G361
IPC-298 = test system: IPC-298
IST-MEL1 = test system: IST-MEL1
LB2518-MEL = test system: LB2518-MEL
LOXIMVI = test system: LOXIMVI
MEL-HO = test system: MEL-HO

SMILES	cleaved PARP positive nuclei fraction (CBRC034)	cleaved PARP positive nuclei fraction (COLO792)	cleaved PARP positive nuclei fraction (COLO800)	cleaved PARP positive nuclei fraction (COLO829)	cleaved PARP positive nuclei fraction (G361)	cleaved PARP positive nuclei fraction (IPC-298)	cleaved PARP positive nuclei fraction (IST-MEL1)	cleaved PARP positive nuclei fraction (LB2518-MEL)	cleaved PARP positive nuclei fraction (LOXIMVI)	cleaved PARP positive nuclei fraction (MEL-HO)
C[C@]12O[C@H](C[C@]1(O)CO)n1c3ccccc3c3c4c(c5c6ccccc6n2c5c31)CNC4=O [Lestaurtinib] + CS(=O)(=O)CCNCc1ccc(-c2ccc3ncnc(Nc4ccc(OCc5cccc(F)c5)c(Cl)c4)c3c2)o1 [lapatinib] (first compound 0.004 µM, partner dose 0.8 µM)	29.2%	130%	50.5%	94.3%	117%	67%	235%	120%	98.4%	58.7%
CCCCCCCCCCCCCCCCCCOP(=O)([O-])OC1CC[N+](C)(C)CC1 [Perifosine] + N.N.[Cl][Pt][Cl] [cisplatin] (first compound 0.4 µM, partner dose 1.6 µM)	96.5%	83%	110%	55.1%	91.4%	44.6%	63%	74.7%	52.8%	96.3%
C[C@]12O[C@H](C[C@]1(O)CO)n1c3ccccc3c3c4c(c5c6ccccc6n2c5c31)CNC4=O [Lestaurtinib] + CCN(CC)CCNC(=O)c1c(C)[nH]c(/C=C2\C(=O)Nc3ccc(F)cc32)c1C [sunitinib] (first compound 0.004 µM, partner dose 0.4 µM)	34.8%	153%	181%	89.4%	87.9%	287%	126%	60.3%	135%	40%
CC1(C)CCC(c2ccc(Cl)cc2)=C(CN2CCN(c3ccc(C(=O)NS(=O)(=O)c4ccc(N[C@H](CCN5CCOCC5)CSc5ccccc5)c(S(=O)(=O)C(F)(F)F)c4)cc3)CC2)C1 + N.N.[Cl][Pt][Cl] [cisplatin] (first compound 0.4 µM, partner dose 1.6 µM)	159%	432%	44.8%	193%	127%	81.5%	117%	122%	144%	51.6%
N.N.[Cl][Pt][Cl] [cisplatin] + Nc1ccn([C@@H]2O[C@H](CO)[C@@H](O)C2(F)F)c(=O)n1 [gemcitabine] (first compound 1.6 µM, partner dose 0.0004 µM)	63.1%	138%	105%	51.3%	92.5%	81.2%	193%	90.7%	16.6%	106%
N.N.[Cl][Pt][Cl] [cisplatin] + O=C(O)c1ccc2c(c1)nc(Nc1cccc(Cl)c1)c1ccncc12 [CX4945] (first compound 1.6 µM, partner dose 0.4 µM)	345%	96.5%	140%	151%	234%	106%	59.9%	104%	69.7%	137%
Cn1cc(C2=C(c3cn(C4CCN(Cc5ccccn5)CC4)c4ccccc34)C(=O)NC2=O)c2ccccc21 [Enzastaurin] + Nc1ncn([C@H]2C[C@H](O)[C@@H](CO)O2)c(=O)n1 [decitabine] (first compound 0.8 µM, partner dose 0.1 µM)	34.5%	111%	112%	57.7%	107%	82.2%	278%	60.2%	102%	82.5%
NC(=O)c1ccc(N(C(N)=O)c2c(F)cccc2F)nc1-c1ccc(F)cc1F + C[C@]12O[C@H](C[C@]1(O)CO)n1c3ccccc3c3c4c(c5c6ccccc6n2c5c31)CNC4=O [Lestaurtinib] (first compound 0.4 µM, partner dose 0.004 µM)	27.7%	175%	78.6%	36.3%	166%	205%	66.3%	249%	45.8%	121%
Cc1ccc(Nc2nccc(N(C)c3ccc4c(C)n(C)nc4c3)n2)cc1S(N)(=O)=O [Pazopanib] + N.N.[Cl][Pt][Cl] [cisplatin] (first compound 0.4 µM, partner dose 1.6 µM)	20.5%	62.6%	74.4%	79.6%	41.1%	149%	128%	156%	79.5%	116%
COc1cc([C@@H]2c3cc4c(cc3[C@@H](O[C@@H]3O[C@@H]5CO[C@@H](C)O[C@H]5[C@H](O)[C@H]3O)[C@H]3COC(=O)[C@H]23)OCO4)cc(OC)c1O [etoposide] + Cn1cc(C2=C(c3cn(C4CCN(Cc5ccccn5)CC4)c4ccccc34)C(=O)NC2=O)c2ccccc21 [Enzastaurin] (first compound 0.02 µM, partner dose 0.8 µM)	124%	44.5%	144%	95.1%	39.9%	43.4%	159%	46%	277%	335%
Cn1cc(C2=C(c3cn(C4CCN(Cc5ccccn5)CC4)c4ccccc34)C(=O)NC2=O)c2ccccc21 [Enzastaurin] + CS(=O)(=O)c1ccc(C(=O)Nc2ccc(Cl)c(-c3ccccn3)c2)c(Cl)c1 [vismodegib] (first compound 0.8 µM, partner dose 1 µM)	64.7%	76.4%	48.6%	113%	69.6%	43.7%	130%	106%	21.6%	91.1%
Cc1cc(Nc2cc(N3CCN(C)CC3)nc(/C=C/c3ccccc3)n2)n[nH]1 + C[As](C)SC[C@H](NC(=O)CC[C@H](N)C(=O)O)C(=O)NCC(=O)O [Darinaparsin] (first compound 0.04 µM, partner dose 0.4 µM)	77%	88.8%	44.6%	68%	76.3%	61.6%	62.4%	250%	66.2%	109%
Cc1cc(Nc2cc(N3CCN(C)CC3)nc(Sc3ccc(NC(=O)C4CC4)cc3)n2)n[nH]1 [Tozasertib] + C[C@]12O[C@H](C[C@]1(O)CO)n1c3ccccc3c3c4c(c5c6ccccc6n2c5c31)CNC4=O [Lestaurtinib] (first compound 0.006 µM, partner dose 0.004 µM)	47.4%	70.8%	94.6%	43.4%	122%	44.8%	72.1%	102%	46.8%	27.7%
NC(=O)c1ccc(N(C(N)=O)c2c(F)cccc2F)nc1-c1ccc(F)cc1F + C[As](C)SC[C@H](NC(=O)CC[C@H](N)C(=O)O)C(=O)NCC(=O)O [Darinaparsin] (first compound 0.4 µM, partner dose 0.4 µM)	43.8%	214%	94.7%	65%	75.5%	85.3%	29.5%	93%	39.8%	121%
C[C@]12O[C@H](C[C@]1(O)CO)n1c3ccccc3c3c4c(c5c6ccccc6n2c5c31)CNC4=O [Lestaurtinib] + CC(C)C[C@H](NC(=O)[C@H](Cc1ccccc1)NC(=O)c1cnccn1)B(O)O [Bortezomib] (first compound 0.004 µM, partner dose 0.001 µM)	138%	119%	44.7%	152%	1150%	408%	135%	108%	58.3%	77.9%
Cn1cc(C2=C(c3cn(C4CCN(Cc5ccccn5)CC4)c4ccccc34)C(=O)NC2=O)c2ccccc21 [Enzastaurin] + Nc1nc(F)nc2c1ncn2[C@@H]1O[C@H](CO)[C@@H](O)[C@@H]1O [fludarabine] (first compound 0.8 µM, partner dose 0.2 µM)	64.8%	48%	93.8%	29.6%	31.2%	42.9%	68.1%	227%	87.4%	42.6%
N.N.[Cl][Pt][Cl] [cisplatin] + Nc1cccc2c1CN(C1CCC(=O)NC1=O)C2=O [lenalidomide] (first compound 1.6 µM, partner dose 1 µM)	66.9%	146%	83.1%	93.4%	86.1%	179%	63.9%	158%	67.8%	84%
Cn1cc(C2=C(c3cn(C4CCN(Cc5ccccn5)CC4)c4ccccc34)C(=O)NC2=O)c2ccccc21 [Enzastaurin] + CN(c1ncccc1CNc1nc(Nc2ccc3c(c2)CC(=O)N3)ncc1C(F)(F)F)S(C)(=O)=O [PF562271] (first compound 0.8 µM, partner dose 0.08 µM)	62.6%	46%	71.4%	164%	143%	41.5%	60.9%	54.6%	93.6%	105%
N#Cc1c(O)c2c(-c3ccc(-c4ccccc4O)cc3)csc2[nH]c1=O + O=C(Oc1ccc([N+](=O)[O-])cc1)N1CCC(C(O)(c2ccc3c(c2)OCO3)c2ccc3c(c2)OCO3)CC1 [JZL184] (first compound 2 µM, partner dose 1 µM)	123%	139%	72.3%	99.7%	48%	82.9%	42.1%	244%	41.7%	
Cn1cc(C2=C(c3cn(C4CCN(Cc5ccccn5)CC4)c4ccccc34)C(=O)NC2=O)c2ccccc21 [Enzastaurin] + CC(C)C[C@H](NC(=O)[C@H](Cc1ccccc1)NC(=O)c1cnccn1)B(O)O [Bortezomib] (first compound 0.8 µM, partner dose 0.001 µM)	409%	105%	146%	148%	1190%	46.3%	115%	196%	104%	113%
Cn1c(Nc2ccc(C(F)(F)F)cc2)nc2cc(Oc3ccnc(-c4ncc(C(F)(F)F)[nH]4)c3)ccc21 + C/C(O)=C(\C#N)C(=O)Nc1cc(Br)ccc1Br [LFM-A13] (first compound 0.08 µM, partner dose 2 µM)	117%	865%	102%	72.5%	348%	93.5%	41.9%	152%	121%	

Single values from the results shown.
Under cleaved PARP positive nuclei fraction (CBRC034), Cn1cc(C2=C(c3cn(C4CCN(Cc5ccccn5)CC4)c4ccccc34)C(=O)NC2=O)c2ccccc21 [Enzastaurin] + CS(=O)(=O)c1ccc(C(=O)Nc2ccc(Cl)c(-c3ccccn3)c2)c(Cl)c1 [vismodegib] (first compound 0.8 µM, partner dose 1 µM) reads 64.7%
Under cleaved PARP positive nuclei fraction (COLO800), Cn1c(Nc2ccc(C(F)(F)F)cc2)nc2cc(Oc3ccnc(-c4ncc(C(F)(F)F)[nH]4)c3)ccc21 + C/C(O)=C(\C#N)C(=O)Nc1cc(Br)ccc1Br [LFM-A13] (first compound 0.08 µM, partner dose 2 µM) reads 102%

Reference: the supplement of paper PMC4604168 (melanoma cell lines)
